Test: Elution of THP and 99mTc-THP through amine based (aminopropyl Sep-Pak) column

OCP(CO)CO [THP, Tris(Hydroxymethyl)Phosphine]
Elution (amino propyl SepPak column, 500 mg sorbent): < 2% | uncomplexed THP attached to the column (aminopropyl Sep-Pak): > 99% | Blank (elution) (silica gel (60-200 mesh) column, 500 mg): > 99%
